PubChem BioAssay AID1508597 – Cure First – 2020
Aim: 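Genes whose silencing sensitises or protects ovarian cancer cells against rucaparib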 (primary screen). Cells: human ovarian carcinoma lines grown from tumours: OCI-P5x (papillary serous) and OCI-C5x (clear cell). Knock-down reagent: siRNA pool against human genes, 1.25 pmol siRNA per well. Time to read-out: 72 h or 96 h, depending on the cell culture. Treatment: rucaparib 20 µM (about IC30) or vehicle, present until read-out. Rucaparib or vehicle: Rucaparib. Cell line: OCI-C5x (clear cell). Detection: 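ATP luminescence measured at 72 or 96 h according to the culture, then normalised and expressed as percent viability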. Direction: viability, normalised: higher = more viable cells remaining. Rule for the call: 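a well counts as a hit if its normalised viability is under 80 percent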. Calls: active = viability under 80%; inactive = viability 80% or more.
Shown is an unselected part of the about 2,100 reagents, in one setting of the screen. 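Calls flag viability under 80% in either arm, not effects specific to rucaparib; the reference for percent is not stated.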 Unmarked entries are inactive. Not stated in the record: the 100% reference.

| Gene | technical replicate | viability, normalised (%) |
| --- | --- | --- |
| LRWD1 | 1 | 37.4 (active) |
| LRWD1 | 2 | 39.2 (active) |
| LRWD1 | 3 | 42.5 (active) |
| DUT | 1 | 30.2 (active) |
| DUT | 2 | 34.4 (active) |
| DUT | 3 | 29.7 (active) |
| CBX7 | 1 | 57 (active) |
| CBX7 | 2 | 45.1 (active) |
| CBX7 | 3 | 38.3 (active) |
| EPAS1 | 1 | 64.7 (active) |
| EPAS1 | 2 | 39.6 (active) |
| EPAS1 | 3 | 50.2 (active) |
| PRKAA2 | 1 | 45.7 (active) |
| PRKAA2 | 2 | 57.5 (active) |
| PRKAA2 | 3 | 65.9 (active) |
| TERF2IP | 1 | 68.3 (active) |
| TERF2IP | 2 | 58.6 (active) |
| TERF2IP | 3 | 58.8 (active) |
| DDX42 | 1 | 49.1 (active) |
| DDX42 | 2 | 41.2 (active) |
| DDX42 | 3 | 40.9 (active) |
| PHF2 | 1 | 44.1 (active) |
| PHF2 | 2 | 50 (active) |
| PHF2 | 3 | 43.3 (active) |

2 neighbouring entries from above, for reference:
| Gene | technical replicate | viability, normalised (%) |
| --- | --- | --- |
| LRWD1 | 1 | 37.4 (active) |
| LRWD1 | 2 | 39.2 (active) |
